Legend:
Assay type in all cases: cell-based
[1] = tested on: MIAPaCa-2 (pancreas); assay: In vitro cytotoxic activity assay (MTT), MIAPaCa-2; settings: Homo sapiens, MIA PaCa-2; MIAPaCa-2 (pancreas) cells, exposed for 96 hours; read-out: Cytotoxicity activity IC50
Method: (§1) Compounds 1-16 were screened for their in vitro cytotoxic activity utilizing a 3-(4,5-dimethyl-thiazol-2-yl)-2,5-diphenyltetrazolium bromide (MTT) assay against selected cancer human cell lines consisting of PC3 (prostate), HCT116 (colon), A375 (melanoma), H1299 (lung), MIAPaCa-2 (pancreas), HL60 (leukemia), MCF7 (breast), MDA-MB-231 (breast) (T. Mosmann, J. Immunol. Meth., 1983, 65, 55-63). The cells were cultured at 37° C. in RMPI1640 medium supplemented with 10% fetal bovine serum, 50 IU/mL penicillin, and 50 μg/mL streptomycin in a 5% CO2 incubator. All cells were sub-cultured 3 times/week by trypsinisation. Viable cells were seeded and allowed to adhere for 12 hours before a test drug was added in 96-well plates at an initial density of 1.0×10^5 cells/mL. Tumor cell lines were separately exposed to various concentrations of the tested compounds followed by incubation at a temperature of 37° C. during 96 hours inside a medium of fresh RMPI 1640. Cells were subsequently incubated at 37° C. using MTT at 0.5 mg/mL during 4 hours. After removal of supernatant, formazan crystals were dissolved in isopropanol and the optical density was measured at 570 nm. CX-4945 was used as a positive control.

[2] = tested on: H1299 (lung); assay: In vitro cytotoxic activity assay (MTT), H1299; settings: Homo sapiens, NCI-H1299; H1299 (lung) cells, exposed for 96 hours; read-out: Cytotoxicity activity IC50
Method: as §1

[3] = tested on: HCT116 (colon); assay: In vitro cytotoxic activity assay (MTT), HCT116; settings: Homo sapiens, HCT-116; HCT116 (colon) cells, exposed for 96 hours; read-out: Cytotoxicity activity IC50
Method: as §1

[4] = tested on: HL60 (leukemia); assay: In vitro cytotoxic activity assay (MTT), HL60; settings: Homo sapiens, HL-60; HL60 (leukemia) cells, exposed for 96 hours; read-out: Cytotoxicity activity IC50
Method: as §1

[5] = tested on: MCF7 (breast); assay: In vitro cytotoxic activity assay (MTT), MCF7; settings: Homo sapiens; MCF7 (breast) cells, exposed for 96 hours; read-out: Cytotoxicity activity IC50
Method: as §1

[6] = tested on: MDA-MB-231 (breast); assay: In vitro cytotoxic activity assay (MTT), MDA-MB-231; settings: Homo sapiens; MDA-MB-231 (breast) cells, exposed for 96 hours; read-out: Cytotoxicity activity IC50
Method: as §1

[7] = tested on: PC3 (prostate); assay: In vitro cytotoxic activity assay (MTT), PC3; settings: Homo sapiens, Prostate cell; PC3 (prostate) cells, exposed for 96 hours; read-out: Cytotoxicity activity IC50
Method: as §1

[8] = tested on: A375 (melanoma); assay: In vitro cytotoxic activity assay (MTT), A375; settings: Homo sapiens, A-375; A375 (melanoma) cells, exposed for 96 hours; read-out: Cytotoxicity activity IC50
Method: as §1

## O=C(O)c1ccc2c(c1)nc(Nc1cccc(Cl)c1)c1ccncc12 [CX-4945, reference compound]
[1]
  IC50: 1000 nM
[2]
  IC50: 2300 nM
[3]
  IC50: 2300 nM
[4]
  IC50: 3.7 µM
[5]
  IC50: 9.1 µM
[6]
  IC50: 6.2 µM
[7]
  IC50: 2000 nM
[8]
  IC50: 4.1 µM
